Article PMC9088184

By UniProt entry, the sequences of proteins in these tests, tags left out.
UniProt P49841: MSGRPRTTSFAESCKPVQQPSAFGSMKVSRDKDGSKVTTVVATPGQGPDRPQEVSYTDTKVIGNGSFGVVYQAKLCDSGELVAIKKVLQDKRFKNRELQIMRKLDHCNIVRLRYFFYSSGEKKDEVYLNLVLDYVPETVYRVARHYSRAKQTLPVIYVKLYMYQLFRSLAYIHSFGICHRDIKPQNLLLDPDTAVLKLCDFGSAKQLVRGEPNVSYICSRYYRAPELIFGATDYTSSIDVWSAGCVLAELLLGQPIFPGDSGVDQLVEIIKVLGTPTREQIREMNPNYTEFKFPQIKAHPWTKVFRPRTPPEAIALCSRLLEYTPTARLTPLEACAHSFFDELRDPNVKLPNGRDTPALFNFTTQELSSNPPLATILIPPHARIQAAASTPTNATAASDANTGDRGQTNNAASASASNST
UniProt P01040: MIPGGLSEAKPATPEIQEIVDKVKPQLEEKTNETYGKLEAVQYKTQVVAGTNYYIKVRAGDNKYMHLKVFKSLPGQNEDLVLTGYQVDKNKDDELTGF
UniProt P60660: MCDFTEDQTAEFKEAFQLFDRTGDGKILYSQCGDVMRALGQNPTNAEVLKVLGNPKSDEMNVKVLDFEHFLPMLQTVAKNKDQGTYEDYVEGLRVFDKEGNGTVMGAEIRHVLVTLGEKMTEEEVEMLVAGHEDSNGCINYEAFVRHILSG
UniProt P68871: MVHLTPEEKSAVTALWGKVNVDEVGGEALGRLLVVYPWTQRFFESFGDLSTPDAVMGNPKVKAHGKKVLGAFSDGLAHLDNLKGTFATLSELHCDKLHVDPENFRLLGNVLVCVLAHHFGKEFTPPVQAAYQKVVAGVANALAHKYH
UniProt P15924: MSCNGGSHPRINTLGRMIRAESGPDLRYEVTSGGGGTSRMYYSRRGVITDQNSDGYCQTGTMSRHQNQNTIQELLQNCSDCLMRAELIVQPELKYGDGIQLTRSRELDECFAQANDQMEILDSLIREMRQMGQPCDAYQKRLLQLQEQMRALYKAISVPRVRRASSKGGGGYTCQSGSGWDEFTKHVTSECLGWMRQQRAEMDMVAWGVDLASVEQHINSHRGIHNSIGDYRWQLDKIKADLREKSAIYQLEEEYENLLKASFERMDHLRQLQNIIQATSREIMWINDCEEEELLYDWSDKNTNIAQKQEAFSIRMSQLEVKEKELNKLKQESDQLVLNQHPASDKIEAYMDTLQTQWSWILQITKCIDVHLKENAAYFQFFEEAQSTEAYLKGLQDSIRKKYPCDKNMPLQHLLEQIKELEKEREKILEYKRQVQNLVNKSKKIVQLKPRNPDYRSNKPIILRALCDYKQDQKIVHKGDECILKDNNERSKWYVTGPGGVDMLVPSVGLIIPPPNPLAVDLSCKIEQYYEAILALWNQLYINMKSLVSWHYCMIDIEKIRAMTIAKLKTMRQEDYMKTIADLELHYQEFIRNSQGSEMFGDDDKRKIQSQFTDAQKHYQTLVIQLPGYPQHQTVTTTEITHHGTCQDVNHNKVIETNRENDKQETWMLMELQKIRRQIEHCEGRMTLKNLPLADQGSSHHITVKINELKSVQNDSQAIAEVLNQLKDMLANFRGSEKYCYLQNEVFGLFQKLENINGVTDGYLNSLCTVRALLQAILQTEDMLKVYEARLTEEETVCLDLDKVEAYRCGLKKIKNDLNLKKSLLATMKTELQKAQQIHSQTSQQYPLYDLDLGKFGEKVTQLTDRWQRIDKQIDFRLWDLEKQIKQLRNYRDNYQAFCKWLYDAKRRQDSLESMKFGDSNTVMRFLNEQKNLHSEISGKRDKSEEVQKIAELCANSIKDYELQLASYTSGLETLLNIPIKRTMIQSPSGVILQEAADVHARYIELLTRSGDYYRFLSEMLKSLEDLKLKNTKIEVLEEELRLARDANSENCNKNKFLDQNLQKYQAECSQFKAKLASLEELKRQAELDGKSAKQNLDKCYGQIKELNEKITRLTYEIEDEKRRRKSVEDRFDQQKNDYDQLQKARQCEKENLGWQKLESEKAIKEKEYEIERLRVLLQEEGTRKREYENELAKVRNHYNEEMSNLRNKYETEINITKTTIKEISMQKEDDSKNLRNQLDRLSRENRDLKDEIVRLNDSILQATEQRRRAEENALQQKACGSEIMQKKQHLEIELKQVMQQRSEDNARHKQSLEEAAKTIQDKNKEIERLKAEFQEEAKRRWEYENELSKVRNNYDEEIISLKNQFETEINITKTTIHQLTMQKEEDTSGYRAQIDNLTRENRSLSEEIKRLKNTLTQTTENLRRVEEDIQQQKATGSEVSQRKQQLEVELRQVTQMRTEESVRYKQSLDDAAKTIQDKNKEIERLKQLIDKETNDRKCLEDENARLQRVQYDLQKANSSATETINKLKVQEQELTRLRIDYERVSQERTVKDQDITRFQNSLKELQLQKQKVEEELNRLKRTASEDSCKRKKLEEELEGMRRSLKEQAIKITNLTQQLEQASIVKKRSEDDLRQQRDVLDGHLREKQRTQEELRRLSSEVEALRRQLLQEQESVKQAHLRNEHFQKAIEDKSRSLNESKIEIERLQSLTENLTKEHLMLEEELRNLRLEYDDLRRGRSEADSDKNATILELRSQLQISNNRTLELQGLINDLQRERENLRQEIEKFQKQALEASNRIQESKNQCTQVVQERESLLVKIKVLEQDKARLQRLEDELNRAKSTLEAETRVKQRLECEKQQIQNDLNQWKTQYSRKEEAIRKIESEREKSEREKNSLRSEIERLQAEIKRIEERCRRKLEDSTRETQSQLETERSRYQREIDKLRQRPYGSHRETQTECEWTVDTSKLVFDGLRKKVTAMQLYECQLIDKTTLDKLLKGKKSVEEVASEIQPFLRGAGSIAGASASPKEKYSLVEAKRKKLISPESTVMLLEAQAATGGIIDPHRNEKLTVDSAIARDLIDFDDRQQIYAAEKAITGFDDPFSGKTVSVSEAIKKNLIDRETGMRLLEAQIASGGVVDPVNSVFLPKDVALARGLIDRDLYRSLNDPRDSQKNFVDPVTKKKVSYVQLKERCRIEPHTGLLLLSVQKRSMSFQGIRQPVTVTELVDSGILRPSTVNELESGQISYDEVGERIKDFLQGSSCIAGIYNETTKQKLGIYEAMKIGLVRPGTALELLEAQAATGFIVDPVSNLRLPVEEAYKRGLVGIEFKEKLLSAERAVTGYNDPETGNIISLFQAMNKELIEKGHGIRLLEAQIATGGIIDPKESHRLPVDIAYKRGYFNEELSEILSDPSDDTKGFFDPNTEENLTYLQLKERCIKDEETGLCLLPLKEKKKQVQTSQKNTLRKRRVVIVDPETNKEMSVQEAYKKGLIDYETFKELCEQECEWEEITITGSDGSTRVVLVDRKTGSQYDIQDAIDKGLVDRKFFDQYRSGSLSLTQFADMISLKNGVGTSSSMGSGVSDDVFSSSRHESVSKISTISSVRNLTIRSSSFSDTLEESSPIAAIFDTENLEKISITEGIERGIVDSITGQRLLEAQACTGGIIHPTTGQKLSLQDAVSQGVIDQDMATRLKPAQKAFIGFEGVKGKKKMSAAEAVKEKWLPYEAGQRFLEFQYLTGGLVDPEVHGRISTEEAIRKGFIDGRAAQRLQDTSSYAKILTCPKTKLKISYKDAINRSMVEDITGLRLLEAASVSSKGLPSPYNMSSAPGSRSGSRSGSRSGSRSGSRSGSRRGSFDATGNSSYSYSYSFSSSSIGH
UniProt P68104: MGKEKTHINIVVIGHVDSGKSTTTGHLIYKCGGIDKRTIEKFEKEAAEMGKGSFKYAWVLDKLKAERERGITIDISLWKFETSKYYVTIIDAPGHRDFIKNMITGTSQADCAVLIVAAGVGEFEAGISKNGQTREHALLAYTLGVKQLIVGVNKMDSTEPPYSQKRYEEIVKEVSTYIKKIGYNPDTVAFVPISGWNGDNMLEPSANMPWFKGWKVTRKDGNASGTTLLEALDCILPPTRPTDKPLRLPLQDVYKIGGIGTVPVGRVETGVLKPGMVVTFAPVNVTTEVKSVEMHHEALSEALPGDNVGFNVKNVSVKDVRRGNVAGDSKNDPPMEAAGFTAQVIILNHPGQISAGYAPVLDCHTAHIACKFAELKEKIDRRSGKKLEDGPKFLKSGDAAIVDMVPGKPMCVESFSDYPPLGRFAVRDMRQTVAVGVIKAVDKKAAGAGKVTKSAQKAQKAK
UniProt Q9ULV4: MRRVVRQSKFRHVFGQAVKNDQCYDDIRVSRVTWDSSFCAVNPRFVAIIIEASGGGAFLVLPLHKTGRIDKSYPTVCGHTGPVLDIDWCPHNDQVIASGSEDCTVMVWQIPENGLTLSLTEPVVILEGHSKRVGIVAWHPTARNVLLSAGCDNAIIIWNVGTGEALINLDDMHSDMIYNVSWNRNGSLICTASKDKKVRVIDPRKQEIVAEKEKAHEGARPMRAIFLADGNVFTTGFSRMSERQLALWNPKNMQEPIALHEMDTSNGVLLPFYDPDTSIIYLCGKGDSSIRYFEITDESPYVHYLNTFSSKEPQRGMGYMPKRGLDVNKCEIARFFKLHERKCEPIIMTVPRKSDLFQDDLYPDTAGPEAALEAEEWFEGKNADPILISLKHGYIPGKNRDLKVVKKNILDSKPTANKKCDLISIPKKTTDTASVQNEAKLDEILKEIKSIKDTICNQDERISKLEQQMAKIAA
UniProt P35579: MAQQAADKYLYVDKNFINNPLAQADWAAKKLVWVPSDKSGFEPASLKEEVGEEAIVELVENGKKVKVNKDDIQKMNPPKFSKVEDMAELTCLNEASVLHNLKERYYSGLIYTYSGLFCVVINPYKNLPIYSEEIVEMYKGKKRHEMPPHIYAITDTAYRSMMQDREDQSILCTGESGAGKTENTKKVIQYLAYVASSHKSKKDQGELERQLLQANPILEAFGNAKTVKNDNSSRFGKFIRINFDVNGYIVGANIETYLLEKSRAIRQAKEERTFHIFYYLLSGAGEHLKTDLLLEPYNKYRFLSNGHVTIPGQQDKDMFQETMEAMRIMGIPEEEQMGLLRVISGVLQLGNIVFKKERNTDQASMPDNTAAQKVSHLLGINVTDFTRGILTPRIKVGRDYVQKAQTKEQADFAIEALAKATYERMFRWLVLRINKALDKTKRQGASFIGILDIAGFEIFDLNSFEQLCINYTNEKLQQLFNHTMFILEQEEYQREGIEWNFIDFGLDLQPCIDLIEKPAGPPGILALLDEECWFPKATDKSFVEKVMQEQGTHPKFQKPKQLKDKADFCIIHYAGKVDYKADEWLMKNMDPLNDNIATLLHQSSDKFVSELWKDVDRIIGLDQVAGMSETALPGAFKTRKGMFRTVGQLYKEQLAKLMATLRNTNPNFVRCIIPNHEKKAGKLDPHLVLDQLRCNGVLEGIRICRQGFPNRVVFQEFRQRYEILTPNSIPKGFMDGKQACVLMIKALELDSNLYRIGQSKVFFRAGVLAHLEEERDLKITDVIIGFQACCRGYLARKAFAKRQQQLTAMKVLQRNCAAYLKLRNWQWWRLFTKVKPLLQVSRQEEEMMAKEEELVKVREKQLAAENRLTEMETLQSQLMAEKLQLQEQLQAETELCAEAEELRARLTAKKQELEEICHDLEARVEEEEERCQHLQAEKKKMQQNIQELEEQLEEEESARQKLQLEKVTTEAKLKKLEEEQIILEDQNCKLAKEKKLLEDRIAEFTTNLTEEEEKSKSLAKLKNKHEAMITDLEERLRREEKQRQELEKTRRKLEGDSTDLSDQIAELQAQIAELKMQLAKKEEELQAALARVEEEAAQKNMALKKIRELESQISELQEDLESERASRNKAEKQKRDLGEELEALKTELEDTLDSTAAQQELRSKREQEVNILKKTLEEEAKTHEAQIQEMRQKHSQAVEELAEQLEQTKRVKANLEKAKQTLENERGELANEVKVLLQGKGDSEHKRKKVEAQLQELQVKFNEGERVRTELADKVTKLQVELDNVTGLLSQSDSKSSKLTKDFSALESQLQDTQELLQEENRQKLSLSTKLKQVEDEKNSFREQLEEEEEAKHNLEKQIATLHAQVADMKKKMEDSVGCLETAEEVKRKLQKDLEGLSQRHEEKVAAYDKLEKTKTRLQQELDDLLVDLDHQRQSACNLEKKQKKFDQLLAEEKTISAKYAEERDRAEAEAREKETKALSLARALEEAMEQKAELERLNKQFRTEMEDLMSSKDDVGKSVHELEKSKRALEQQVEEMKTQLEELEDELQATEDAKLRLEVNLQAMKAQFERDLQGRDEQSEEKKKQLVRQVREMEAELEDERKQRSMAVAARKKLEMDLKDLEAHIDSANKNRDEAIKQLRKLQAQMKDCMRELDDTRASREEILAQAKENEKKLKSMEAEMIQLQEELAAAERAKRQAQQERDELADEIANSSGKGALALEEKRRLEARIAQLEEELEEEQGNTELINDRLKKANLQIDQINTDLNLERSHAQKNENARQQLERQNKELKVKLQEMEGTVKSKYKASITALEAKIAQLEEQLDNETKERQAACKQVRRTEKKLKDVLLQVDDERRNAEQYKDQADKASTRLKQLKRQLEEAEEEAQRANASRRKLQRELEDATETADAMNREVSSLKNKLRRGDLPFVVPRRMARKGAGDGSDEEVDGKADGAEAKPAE

The molecules below were run against Glycogen synthase kinase-3β (human (endogenous in MCF-7ADR, 293T, breast cancer tissue)) (UniProt P49841) (assay: affinity purification with mass spectrometry; GSK3β immunoprecipitated from MCF-7ADR lysate with anti-GSK3β antibody or IgG; LC-MS/MS, Mascot 2.3; candidates with no unique peptide in the IgG sample).

binding	Molecule
binds	sp|Q02413|DSG1_HUMAN (from UniProt Q02413 50-1049)
binds	sp|P01040|CYTA_HUMAN (from UniProt P01040 1-98)
binds	tr|F8VPF3|F8VPF3_HUMAN (from UniProt P60660 1-151)
binds	sp|P68871|HBB_HUMAN (from UniProt P68871 1-147)
binds	tr|A0A0C4DGB6|A0A0C4DGB6_HUMAN (from UniProt P02768 25-609)
binds	tr|H0YH81|H0YH81_HUMAN (from UniProt P06576 48-529)
binds	sp|P15924|DESP_HUMAN (from UniProt P15924 1-2871)
binds	tr|A0A087WVQ9|A0A087WVQ9_HUMAN (from UniProt P68104 1-462)
binds	sp|Q9ULV4|COR1C_HUMAN (from UniProt Q9ULV4 1-474)
binds	sp|P35579|MYH9_HUMAN (from UniProt P35579 1-1960)
binds	sp|P29508|SPB3_HUMAN (protein, UniProt P29508 1-390) MNSLSEANTKFMFDLFQQFRKSKENNIFYSPISITSALGMVLLGAKDNTAQQIKKVLHFDQVTENTTGKAATYHVDRSGNVHHQFQKLLTEFNKSTDAYELKIANKLFGEKTYLFLQEYLDAIKKFYQTSVESVDFANAPEESRKKINSWVESQTNEKIKNLIPEGNIGSNTTLVLVNAIYFKGQWEKKFNKEDTKEEKFWPNKNTYKSIQMMRQYTSFHFASLEDVQAKVLEIPYKGKDLSMIVLLPNEIDGLQKLEEKLTAEKLMEWTSLQNMRETRVDLHLPRFKVEESYDLKDTLRTMGMVDIFNGDADLSGMTGSRGLVLSGVLHKAFVEVTEEGAEAAAATAVVGFGSSPTSTNEEFHCNHPFLFFIRQNKTNSILFYGRFSSP
binds	sp|P06702|S10A9_HUMAN (protein, UniProt P06702 1-114) MTCKMSQLERNIETIINTFHQYSVKLGHPDTLNQGEFKELVRKDLQNFLKKENKNEKVIEHIMEDLDTNADKQLSFEEFIMLMARLTWASHEKMHEGDEGPGHHHKPGLGEGTP
binds	sp|P12273|PIP_HUMAN (protein, UniProt P12273 29-146) QDNTRKIIIKNFDIPKSVRPNDEVTAVLAVQTELKECMVVKTYLISSIPLQGAFNYKYTACLCDDNPKTFYWDFYTNRTVQIAAVVDVIRELGICPDDAAVIPIKNNRFYTIEILKVE
binds	sp|P81605|DCD_HUMAN (protein, UniProt P81605 20-110) YDPEAASAPGSGNPCHEASAAQKENAGEDPGLARQAPKPRKQRSSLLEKGLDGAKKAVGGLGKLGKDAVEDLESVGKGAVHDVKDVLDSVL
binds	sp|P31151|S10A7_HUMAN (protein, UniProt P31151 1-101) MSNTQAERSIIGMIDMFHKYTRRDDKIEKPSLLTMMKENFPNFLSACDKKGTNYLADVFEKKDKNEDKKIDFSEFLSLLGDIATDYHKQSHGAAPCSGGSQ
binds	sp|P14923|PLAK_HUMAN (protein, UniProt P14923 1-745) MEVMNLMEQPIKVTEWQQTYTYDSGIHSGANTCVPSVSSKGIMEEDEACGRQYTLKKTTTYTQGVPPSQGDLEYQMSTTARAKRVREAMCPGVSGEDSSLLLATQVEGQATNLQRLAEPSQLLKSAIVHLINYQDDAELATRALPELTKLLNDEDPVVVTKAAMIVNQLSKKEASRRALMGSPQLVAAVVRTMQNTSDLDTARCTTSILHNLSHHREGLLAIFKSGGIPALVRMLSSPVESVLFYAITTLHNLLLYQEGAKMAVRLADGLQKMVPLLNKNNPKFLAITTDCLQLLAYGNQESKLIILANGGPQALVQIMRNYSYEKLLWTTSRVLKVLSVCPSNKPAIVEAGGMQALGKHLTSNSPRLVQNCLWTLRNLSDVATKQEGLESVLKILVNQLSVDDVNVLTCATGTLSNLTCNNSKNKTLVTQNSGVEALIHAILRAGDKDDITEPAVCALRHLTSRHPEAEMAQNSVRLNYGIPAIVKLLNQPNQWPLVKATIGLIRNLALCPANHAPLQEAAVIPRLVQLLVKAHQDAQRHVAAGTQQPYTDGVRMEEIVEGCTGALHILARDPMNRMEIFRLNTIPLFVQLLYSSVENIQRVAAGVLCELAQDKEAADAIDAEGASAPLMELLHSRNEGTATYAAAVLFRISEDKNPDYRKRVSVELTNSLFKHDPAAWEAAQSMIPINEPYGDDMDATYRPMYSSDVPLDPLEMHMDMDGDYPIDTYSDGLRPPYPTADHMLA

No constants are given. Whether binding was seen depends on the method and setting. In cells and extracts the contact can be indirect. A yes stands for co-enrichment or nearness to the bait. Other partners may have been found.
